In the supplement of paper PMC6411743:
± gives the standard deviation of the averaged measurements. The list shows a part of the results, in another mix than the full data.

Protein sequences, listed by entry. Tags and fused reporters are not part of them. Lines headed by an entry give the natural chain unless they say otherwise; changes in a name come on top.
UniProt P54098: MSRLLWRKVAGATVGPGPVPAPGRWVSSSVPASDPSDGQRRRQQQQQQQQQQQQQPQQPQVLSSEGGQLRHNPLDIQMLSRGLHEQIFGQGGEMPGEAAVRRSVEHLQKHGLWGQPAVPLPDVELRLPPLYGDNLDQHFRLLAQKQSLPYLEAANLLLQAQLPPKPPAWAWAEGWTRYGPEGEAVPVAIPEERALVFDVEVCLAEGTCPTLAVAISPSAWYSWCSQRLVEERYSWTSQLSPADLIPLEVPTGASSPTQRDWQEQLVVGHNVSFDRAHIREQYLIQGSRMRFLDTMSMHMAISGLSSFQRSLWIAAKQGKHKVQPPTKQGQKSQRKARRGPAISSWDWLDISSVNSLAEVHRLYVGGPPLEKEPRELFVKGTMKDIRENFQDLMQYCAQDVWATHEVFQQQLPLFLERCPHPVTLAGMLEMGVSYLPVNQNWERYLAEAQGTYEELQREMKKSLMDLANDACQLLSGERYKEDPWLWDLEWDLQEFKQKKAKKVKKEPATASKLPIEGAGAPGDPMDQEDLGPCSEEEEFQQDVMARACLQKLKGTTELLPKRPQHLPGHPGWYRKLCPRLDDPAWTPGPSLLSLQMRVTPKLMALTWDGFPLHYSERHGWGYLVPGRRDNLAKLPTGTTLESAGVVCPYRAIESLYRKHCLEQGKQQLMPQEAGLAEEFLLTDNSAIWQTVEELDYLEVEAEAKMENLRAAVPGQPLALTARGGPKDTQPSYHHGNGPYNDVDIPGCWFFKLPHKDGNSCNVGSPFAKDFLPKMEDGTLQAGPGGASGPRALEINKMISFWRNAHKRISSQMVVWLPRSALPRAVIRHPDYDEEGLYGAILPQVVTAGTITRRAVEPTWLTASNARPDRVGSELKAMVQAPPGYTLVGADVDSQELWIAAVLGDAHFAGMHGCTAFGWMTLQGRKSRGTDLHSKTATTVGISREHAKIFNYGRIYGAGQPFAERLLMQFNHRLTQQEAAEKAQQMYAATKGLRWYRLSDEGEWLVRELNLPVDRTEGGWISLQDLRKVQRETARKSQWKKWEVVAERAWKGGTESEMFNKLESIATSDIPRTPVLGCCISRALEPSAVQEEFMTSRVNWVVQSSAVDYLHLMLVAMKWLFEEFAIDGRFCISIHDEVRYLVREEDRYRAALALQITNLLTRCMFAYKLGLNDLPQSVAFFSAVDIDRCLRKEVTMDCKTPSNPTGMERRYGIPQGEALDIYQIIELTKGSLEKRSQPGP
UniProt Q5J8M3, whole entry: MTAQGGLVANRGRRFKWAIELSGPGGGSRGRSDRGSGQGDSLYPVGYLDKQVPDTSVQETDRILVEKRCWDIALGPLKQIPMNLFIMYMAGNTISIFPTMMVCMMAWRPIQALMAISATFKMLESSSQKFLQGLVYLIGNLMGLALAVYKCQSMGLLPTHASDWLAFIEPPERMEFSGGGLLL
UniProt P50213: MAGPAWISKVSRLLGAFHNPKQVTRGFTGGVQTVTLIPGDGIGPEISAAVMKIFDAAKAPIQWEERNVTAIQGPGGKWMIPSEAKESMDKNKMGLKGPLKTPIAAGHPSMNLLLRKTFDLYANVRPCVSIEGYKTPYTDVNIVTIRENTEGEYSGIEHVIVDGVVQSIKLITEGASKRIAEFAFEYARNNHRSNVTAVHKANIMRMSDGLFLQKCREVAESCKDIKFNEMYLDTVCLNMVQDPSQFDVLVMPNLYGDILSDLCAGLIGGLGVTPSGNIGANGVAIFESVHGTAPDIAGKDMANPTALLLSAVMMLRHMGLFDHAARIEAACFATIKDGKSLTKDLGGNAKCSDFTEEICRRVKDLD
UniProt P20674, whole entry: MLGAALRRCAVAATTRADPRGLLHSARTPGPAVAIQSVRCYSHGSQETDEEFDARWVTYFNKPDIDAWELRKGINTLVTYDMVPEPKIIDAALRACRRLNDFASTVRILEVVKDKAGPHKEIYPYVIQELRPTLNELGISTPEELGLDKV
UniProt Q7LG56, whole entry: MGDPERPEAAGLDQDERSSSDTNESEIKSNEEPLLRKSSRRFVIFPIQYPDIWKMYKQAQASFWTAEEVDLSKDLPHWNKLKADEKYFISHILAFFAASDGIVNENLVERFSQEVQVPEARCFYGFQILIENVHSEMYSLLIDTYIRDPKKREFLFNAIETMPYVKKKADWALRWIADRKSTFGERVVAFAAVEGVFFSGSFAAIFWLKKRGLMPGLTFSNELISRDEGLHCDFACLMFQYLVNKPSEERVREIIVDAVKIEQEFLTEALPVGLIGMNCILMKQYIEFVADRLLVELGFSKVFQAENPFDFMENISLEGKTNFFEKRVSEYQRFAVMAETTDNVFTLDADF
UniProt Q96BT3, whole entry: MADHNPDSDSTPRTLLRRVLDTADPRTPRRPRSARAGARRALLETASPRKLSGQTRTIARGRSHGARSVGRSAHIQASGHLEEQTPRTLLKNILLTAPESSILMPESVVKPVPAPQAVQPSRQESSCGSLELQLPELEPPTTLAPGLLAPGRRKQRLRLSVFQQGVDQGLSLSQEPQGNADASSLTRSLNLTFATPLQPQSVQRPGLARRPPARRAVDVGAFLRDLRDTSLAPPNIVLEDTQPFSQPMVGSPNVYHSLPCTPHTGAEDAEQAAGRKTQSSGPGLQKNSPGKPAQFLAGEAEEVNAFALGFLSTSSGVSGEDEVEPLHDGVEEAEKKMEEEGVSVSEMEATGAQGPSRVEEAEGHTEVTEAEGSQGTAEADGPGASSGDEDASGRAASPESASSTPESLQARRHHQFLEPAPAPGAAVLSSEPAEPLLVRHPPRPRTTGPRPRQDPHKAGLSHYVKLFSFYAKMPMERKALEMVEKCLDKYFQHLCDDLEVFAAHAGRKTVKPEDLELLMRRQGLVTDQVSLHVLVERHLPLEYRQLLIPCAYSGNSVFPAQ
UniProt Q9BW66: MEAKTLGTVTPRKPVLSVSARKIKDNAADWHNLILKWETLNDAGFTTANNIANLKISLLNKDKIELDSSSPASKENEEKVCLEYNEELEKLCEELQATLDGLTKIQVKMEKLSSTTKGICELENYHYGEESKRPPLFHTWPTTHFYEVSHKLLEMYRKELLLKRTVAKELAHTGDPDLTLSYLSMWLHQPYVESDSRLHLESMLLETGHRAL
UniProt P62191: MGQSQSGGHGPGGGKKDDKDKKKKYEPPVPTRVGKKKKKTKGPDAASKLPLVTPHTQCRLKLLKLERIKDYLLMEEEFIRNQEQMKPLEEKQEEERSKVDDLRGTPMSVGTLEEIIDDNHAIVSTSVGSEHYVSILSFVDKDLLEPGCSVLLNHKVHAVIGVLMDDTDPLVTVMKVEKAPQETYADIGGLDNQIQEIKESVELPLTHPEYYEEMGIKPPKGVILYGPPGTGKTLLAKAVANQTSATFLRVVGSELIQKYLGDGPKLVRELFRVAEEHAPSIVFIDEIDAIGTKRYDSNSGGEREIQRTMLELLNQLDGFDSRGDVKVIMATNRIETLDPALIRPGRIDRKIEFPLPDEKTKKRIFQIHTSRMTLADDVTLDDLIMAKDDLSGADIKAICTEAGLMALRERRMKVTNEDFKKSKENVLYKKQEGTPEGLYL
UniProt Q13227: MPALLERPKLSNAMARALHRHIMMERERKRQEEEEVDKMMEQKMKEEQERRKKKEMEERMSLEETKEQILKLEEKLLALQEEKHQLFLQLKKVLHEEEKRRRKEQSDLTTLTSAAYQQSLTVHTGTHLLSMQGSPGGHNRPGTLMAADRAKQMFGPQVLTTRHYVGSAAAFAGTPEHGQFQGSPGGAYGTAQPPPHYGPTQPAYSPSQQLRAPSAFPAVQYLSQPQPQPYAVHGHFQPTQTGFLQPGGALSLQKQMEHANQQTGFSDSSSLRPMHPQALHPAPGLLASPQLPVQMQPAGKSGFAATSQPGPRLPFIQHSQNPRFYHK
UniProt Q8IUR7, whole entry: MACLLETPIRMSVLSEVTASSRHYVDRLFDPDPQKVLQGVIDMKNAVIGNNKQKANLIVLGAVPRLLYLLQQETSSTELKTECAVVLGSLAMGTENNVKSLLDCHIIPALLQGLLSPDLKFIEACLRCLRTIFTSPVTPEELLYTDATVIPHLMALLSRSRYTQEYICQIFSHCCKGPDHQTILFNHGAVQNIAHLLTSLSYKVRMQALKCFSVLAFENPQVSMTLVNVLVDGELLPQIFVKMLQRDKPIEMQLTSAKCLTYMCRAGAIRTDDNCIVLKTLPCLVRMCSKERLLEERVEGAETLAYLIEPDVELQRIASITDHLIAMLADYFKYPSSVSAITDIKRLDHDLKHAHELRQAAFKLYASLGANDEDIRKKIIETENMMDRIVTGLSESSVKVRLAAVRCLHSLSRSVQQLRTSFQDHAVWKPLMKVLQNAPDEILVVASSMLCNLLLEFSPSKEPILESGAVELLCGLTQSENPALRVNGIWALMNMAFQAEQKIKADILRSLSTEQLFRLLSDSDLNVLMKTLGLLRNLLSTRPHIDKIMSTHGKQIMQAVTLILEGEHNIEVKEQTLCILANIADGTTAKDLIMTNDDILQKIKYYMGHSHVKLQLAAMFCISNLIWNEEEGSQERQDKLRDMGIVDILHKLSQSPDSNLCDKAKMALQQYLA
UniProt Q6W2J9: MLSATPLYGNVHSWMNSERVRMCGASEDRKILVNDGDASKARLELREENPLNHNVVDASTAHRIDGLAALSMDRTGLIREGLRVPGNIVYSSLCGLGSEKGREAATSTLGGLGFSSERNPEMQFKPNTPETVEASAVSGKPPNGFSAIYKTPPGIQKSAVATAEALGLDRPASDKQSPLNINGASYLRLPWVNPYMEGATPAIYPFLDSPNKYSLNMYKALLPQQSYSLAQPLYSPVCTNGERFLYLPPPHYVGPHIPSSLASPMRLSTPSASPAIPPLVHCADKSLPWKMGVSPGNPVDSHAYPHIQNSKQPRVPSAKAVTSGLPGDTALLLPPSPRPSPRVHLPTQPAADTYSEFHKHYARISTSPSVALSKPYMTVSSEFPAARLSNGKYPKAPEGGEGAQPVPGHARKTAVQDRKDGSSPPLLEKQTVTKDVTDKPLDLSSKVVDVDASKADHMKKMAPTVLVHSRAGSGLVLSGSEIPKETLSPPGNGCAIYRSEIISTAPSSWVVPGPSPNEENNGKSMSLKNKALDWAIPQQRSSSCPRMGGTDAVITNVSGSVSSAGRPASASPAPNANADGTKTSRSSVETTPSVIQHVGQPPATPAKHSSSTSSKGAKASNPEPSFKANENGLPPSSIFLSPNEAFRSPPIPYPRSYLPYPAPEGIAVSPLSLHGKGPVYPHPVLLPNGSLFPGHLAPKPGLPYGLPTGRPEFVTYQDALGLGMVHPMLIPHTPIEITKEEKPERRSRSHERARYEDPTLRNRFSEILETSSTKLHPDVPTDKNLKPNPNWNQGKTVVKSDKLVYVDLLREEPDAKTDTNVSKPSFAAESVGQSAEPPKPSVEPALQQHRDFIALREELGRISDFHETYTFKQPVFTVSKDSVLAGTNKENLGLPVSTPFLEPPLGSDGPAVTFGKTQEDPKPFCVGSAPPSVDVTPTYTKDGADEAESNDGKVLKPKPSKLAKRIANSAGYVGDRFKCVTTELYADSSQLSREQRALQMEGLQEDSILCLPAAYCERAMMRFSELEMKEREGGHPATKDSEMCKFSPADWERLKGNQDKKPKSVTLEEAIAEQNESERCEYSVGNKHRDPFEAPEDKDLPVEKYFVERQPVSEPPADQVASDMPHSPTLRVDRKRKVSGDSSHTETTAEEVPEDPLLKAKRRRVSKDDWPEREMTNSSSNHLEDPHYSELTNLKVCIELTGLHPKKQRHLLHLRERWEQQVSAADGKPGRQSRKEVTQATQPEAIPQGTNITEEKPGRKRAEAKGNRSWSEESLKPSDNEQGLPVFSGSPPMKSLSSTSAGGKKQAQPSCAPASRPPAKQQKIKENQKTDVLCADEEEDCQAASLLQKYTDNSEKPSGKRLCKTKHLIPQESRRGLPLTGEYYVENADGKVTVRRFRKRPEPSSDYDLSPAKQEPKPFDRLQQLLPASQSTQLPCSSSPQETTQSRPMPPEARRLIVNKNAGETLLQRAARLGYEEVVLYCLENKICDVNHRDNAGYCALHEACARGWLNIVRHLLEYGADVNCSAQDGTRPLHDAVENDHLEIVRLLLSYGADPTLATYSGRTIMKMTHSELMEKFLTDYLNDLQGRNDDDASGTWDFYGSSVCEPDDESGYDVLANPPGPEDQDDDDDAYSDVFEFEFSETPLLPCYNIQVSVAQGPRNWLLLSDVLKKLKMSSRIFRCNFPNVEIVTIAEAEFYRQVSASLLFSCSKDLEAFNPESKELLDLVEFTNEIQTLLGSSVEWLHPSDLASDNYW
UniProt Q9BRQ6: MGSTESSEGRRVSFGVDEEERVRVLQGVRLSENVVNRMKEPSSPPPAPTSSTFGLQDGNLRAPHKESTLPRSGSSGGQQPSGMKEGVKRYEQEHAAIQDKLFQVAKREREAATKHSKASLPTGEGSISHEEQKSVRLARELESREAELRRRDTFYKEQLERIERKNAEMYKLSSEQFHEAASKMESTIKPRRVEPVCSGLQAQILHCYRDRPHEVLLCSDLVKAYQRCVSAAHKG

Compound: Nc1ncnc2c1ncn2[C@@H]1O[C@H](COP(=O)(O)OP(=O)(O)NP(=O)(O)O)[C@@H](O)[C@H]1O [adenylyl imidodiphosphate]
Assay: NP40-soluble protein abundance relative to vehicle (solubility fold change) (ratio); higher = more soluble protein in presence of AMP-PNP
Method in brief: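 Each value is a fold change relative to the detergent-processed vehicle, calculated per replicate from vsn-normalised intensities. Jurkat crude lysate received eight concentrations (0.1 to 10 mM) for 10 min at room temperature and 3 min at 37 °C, then was solubilised in 0.8% NP40 with benzonase (60 min, 4 °C). The ultracentrifuged supernatant was TMT-labelled and run by LC-MS/MS in three independent experiments.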

Target | NP40-soluble protein abundance (concentration: 1mM) | NP40-soluble protein abundance (concentration: 2mM) | NP40-soluble protein abundance (concentration: 4mM) | NP40-soluble protein abundance (concentration: 6mM) | NP40-soluble protein abundance (concentration: 8mM) | NP40-soluble protein abundance (concentration: 10mM)
H3BRF9 and related entries (UniProt Q96K21) | 0.998 ± 0.015 | 1.03 ± 0.05 | 1.02 ± 0.049 | 0.979 ± 0.02 | 0.959 ± 0.028 | 0.997 ± 0.044
H3BSD9 and related entries (UniProt Q6PIF6) | 0.992 ± 0.033 | 0.921 ± 0.091 | 1 ± 0.046 | 0.945 ± 0.029 | 0.978 ± 0.011 | 0.931 ± 0.045
H0YD36 and related entries (UniProt P54098) | 0.984 ± 0.018 | 0.95 ± 0.017 | 0.963 ± 0.018 | 0.941 ± 0.022 | 0.969 ± 0.035 | 0.952 ± 0.04
J3KR35 and related entries (UniProt Q8WUD4) | 0.996 ± 0.087 | 1.06 ± 0.066 | 0.937 ± 0.097 | 0.953 ± 0.017 | 0.963 ± 0.025 | 0.937 ± 0.077
H0YK61 and related entries (UniProt Q5J8M3) | 1.01 ± 0.033 | 1 ± 0.067 | 1.03 ± 0.06 | 0.983 ± 0.027 | 0.967 ± 0.042 | 1.02 ± 0.072
H3BSL4 and related entries (UniProt Q66K89) | 0.9872 ± 0.0082 | 0.982 ± 0.011 | 0.982 ± 0.026 | 0.999 ± 0.011 | 0.979 ± 0.049 | 0.979 ± 0.038
H7C1W4 and related entries (UniProt Q93075+H7C1W4) | 1.01 ± 0.013 | 0.9922 ± 0.0029 | 1 ± 0.022 | 0.991 ± 0.016 | 1.0104 ± 0.00041 | 0.9903 ± 0.0013
H0YLF8 and related entries (UniProt P50213) | 0.982 ± 0.025 | 0.938 ± 0.025 | 0.964 ± 0.041 | 1.01 ± 0.063 | 1 ± 0.036 | 0.993 ± 0.042
H6UMI1 and related entries (UniProt O95166) | 1.07 ± 0.053 | 1 ± 0.051 | 1.01 ± 0.076 | 1.01 ± 0.035 | 1.01 ± 0.045 | 0.9706 ± 0.004
H0Y6A0 and related entries (UniProt Q9NP61) | 0.99 ± 0.037 | 1.01 ± 0.069 | 0.994 ± 0.049 | 0.963 ± 0.03 | 0.961 ± 0.043 | 0.961 ± 0.057
H0YAR2 and related entries (UniProt P11940) | 1.01 ± 0.02 | 1.03 ± 0.052 | 0.998 ± 0.046 | 1.04 ± 0.035 | 1.01 ± 0.021 | 1.03 ± 0.021
G5E9C8 and related entries (UniProt Q07889) | 1.01 ± 0.024 | 0.9882 ± 0.0016 | 0.9614 ± 0.0068 | 0.939 ± 0.013 | 0.971 ± 0.042 | 0.96872 ± 0.00068
H3BNX8 and related entries (UniProt P20674) | 1.05 ± 0.065 | 1.07 ± 0.015 | 1.02 ± 0.041 | 1.01 ± 0.068 | 1 ± 0.062 | 0.974 ± 0.052
J3QTA2 and related entries (UniProt Q99933) | 1.01 ± 0.028 | 1.029 ± 0.0083 | 0.992 ± 0.012 | 0.99 ± 0.03 | 0.965 ± 0.038 | 0.993 ± 0.021
H0YAV1 and related entries (UniProt Q7LG56) | 0.97 ± 0.012 | 0.976 ± 0.023 | 0.971 ± 0.0099 | 0.9473 ± 0.0023 | 0.9779 ± 0.0075 | 0.957 ± 0.042
H0YJI2 and related entries (UniProt Q15643) | 1.008 ± 0.0049 | 1.05 ± 0.073 | 1.02 ± 0.018 | 0.953 ± 0.015 | 0.928 ± 0.025 | 0.949 ± 0.043

Target | NP40-soluble protein abundance (concentration: 1mM) | NP40-soluble protein abundance (concentration: 2mM) | NP40-soluble protein abundance (concentration: 4mM) | NP40-soluble protein abundance (concentration: 6mM) | NP40-soluble protein abundance (concentration: 8mM) | NP40-soluble protein abundance (concentration: 10mM)
H0Y2S9 and related entries (UniProt Q6WCQ1) | 1.02 ± 0.012 | 1.03 ± 0.026 | 1.011 ± 0.0086 | 1.008 ± 0.0032 | 1.04 ± 0.034 | 1.04 ± 0.052
H3BTR4 and related entries (UniProt Q96BT3) | 1.05 ± 0.043 | 1.05 ± 0.054 | 1.05 ± 0.046 | 1.02 ± 0.031 | 1.04 ± 0.051 | 1.08 ± 0.079
H3BVD9 and related entries (UniProt O43278) | 1.05 ± 0.027 | 1.05 ± 0.019 | 1.02 ± 0.016 | 1 ± 0.028 | 0.997 ± 0.015 | 1.018 ± 0.0079
H0YN33 and related entries (UniProt Q9BW66) | 1.11 ± 0.034 | 1.13 ± 0.044 | 1.12 ± 0.018 | 1.17 ± 0.027 | 1.21 ± 0.059 | 1.22 ± 0.062
G3V4X1 and related entries (UniProt P62191) | 0.942 ± 0.045 | 0.906 ± 0.049 | 0.888 ± 0.079 | 0.896 ± 0.1 | 0.882 ± 0.1 | 0.89 ± 0.12
J3QLB2 and related entries (UniProt Q8N1S5) | 0.989 ± 0.028 | 0.96 ± 0.024 | 0.96 ± 0.027 | 0.954 ± 0.022 | 0.953 ± 0.0096 | 0.952 ± 0.039
H0YIP2 and related entries (UniProt P49642) | 0.9809 ± 0.0084 | 0.979 ± 0.025 | 0.945 ± 0.015 | 0.946 ± 0.034 | 0.929 ± 0.043 | 0.938 ± 0.038
I3L4X7 and related entries (UniProt Q13227) | 0.982 ± 0.029 | 1.03 ± 0.059 | 1.02 ± 0.064 | 1.08 ± 0.067 | 1.05 ± 0.019 | 1.1 ± 0.019
H7C1J8 and related entries (UniProt P51991) | 1.07 ± 0.15 | 1.15 ± 0.11 | 1.07 ± 0.16 | 1.12 ± 0.19 | 1.18 ± 0.18 | 1.24 ± 0.25
J3QRU4 and related entries (UniProt P63027+L7N2F9+J3QRU4) | 1.01 ± 0.049 | 1.01 ± 0.062 | 0.969 ± 0.054 | 0.968 ± 0.038 | 0.959 ± 0.03 | 0.945 ± 0.022
G5E9V6 and related entries (UniProt Q8IUR7) | 0.968 ± 0.04 | 0.939 ± 0.058 | 0.972 ± 0.061 | 0.945 ± 0.051 | 0.917 ± 0.076 | 0.924 ± 0.074
H7BYY2 and related entries (UniProt Q6W2J9) | 0.981 ± 0.062 | 0.993 ± 0.073 | 0.989 ± 0.062 | 0.974 ± 0.052 | 1.02 ± 0.03 | 0.961 ± 0.094
G3XAC1 and related entries (UniProt Q9BXS9) | 0.969 ± 0.019 | 0.95 ± 0.042 | 0.994 ± 0.044 | 0.98 ± 0.032 | 0.993 ± 0.019 | 1.02 ± 0.07
I3L4C2 and related entries (UniProt Q9UQB8) | 1.015 ± 0.01 | 1.02 ± 0.026 | 0.981 ± 0.036 | 0.999 ± 0.026 | 0.9945 ± 0.0095 | 0.97 ± 0.016
H3BQ24 and related entries (UniProt Q9Y2M0) | 0.926 ± 0.03 | 0.806 ± 0.097 | 0.8414 ± 0.0051 | 0.877 ± 0.06 | 0.858 ± 0.076 | 0.82 ± 0.052
J3QTA6 and related entries (UniProt Q9BRQ6) | 0.998 ± 0.036 | 1.05 ± 0.052 | 0.966 ± 0.043 | 0.939 ± 0.057 | 0.95 ± 0.071 | 0.945 ± 0.056

Not a retest: an excerpt of the list.
Target | NP40-soluble protein abundance (concentration: 1mM) | NP40-soluble protein abundance (concentration: 2mM) | NP40-soluble protein abundance (concentration: 4mM) | NP40-soluble protein abundance (concentration: 6mM) | NP40-soluble protein abundance (concentration: 8mM) | NP40-soluble protein abundance (concentration: 10mM)
I3L4X7 and related entries (UniProt Q13227) | 0.982 ± 0.029 | 1.03 ± 0.059 | 1.02 ± 0.064 | 1.08 ± 0.067 | 1.05 ± 0.019 | 1.1 ± 0.019
H7C1J8 and related entries (UniProt P51991) | 1.07 ± 0.15 | 1.15 ± 0.11 | 1.07 ± 0.16 | 1.12 ± 0.19 | 1.18 ± 0.18 | 1.24 ± 0.25
